Laboratory results: PubChem BioAssay AID720505 (Drosophila RNAi Screening Center, 2013)

Purpose: 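Knock-downs that reduce calcium influx once internal stores are emptied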 (primary screen)
Cells: Drosophila S2R+ cells
Knock-down reagent: long dsRNA against Drosophila genes
Treatment: thapsigargin (2 µM) in calcium-free buffer to empty internal stores, then 2 mM calcium added back
Measurement: 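Stores emptied by 2 µM thapsigargin without calcium, then 2 mM calcium re-added; fluo-4 fluorescence followed by FLIPR in 384-well plates, per-well averaged endpoint, raw; two screen passes, some wells retested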
Direction: calcium signal and retest calcium signal: higher = more calcium entry after store depletion
Hit rule: 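Knock-downs counted as hits when calcium entry dropped relative to STIM1 positive and Rho1 negative controls present on each plate; roughly 1500 genes called, with reductions of differing size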
Meaning of the calls: active = called as lowering calcium entry; inactive = not called
In all, the deposit lists about 20,000 reagents; this is a random part of those with a known target gene and a result. In the full data, about 2,100 (10%) were called active. 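Raw plate signals without normalisation; calls rest on control-based scores that were not deposited; replicate 2 separates called from uncalled poorly.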 A number with no mark means an inactive call. A plus sign joins genes that one reagent is predicted to hit. Not given: the amount of reagent, the time to read-out.

gene | DRSC id | calcium signal, replicate 1 | calcium signal, replicate 2 | retest calcium signal, replicate 1 | retest calcium signal, replicate 2
Tehao | DRSC03449 | 103 | 174 | – | –
Marf1 (Meiosis regulator and mRNA stability factor 1) | DRSC03747 | 167 | 89.2 | – | –
Marf1 (Meiosis regulator and mRNA stability factor 1) | DRSC03774 | 87.1 | 8940 | – | –
CG5611 | DRSC15843 | 99.6 | 84.6 | – | –
brn (brainiac) | DRSC18746 | 105 | 110 | – | –
ball (ballchen) | DRSC14145 | 108 | 114 | – | –
TTLL4A (Tubulin tyrosine ligase-like 4A) | DRSC02528 | 90.7 | 123 | – | –
CG15385 | DRSC00399 | 127 | 162 | – | –
CG13114 | DRSC02212 | 245 | 199 | – | –
CG7514 | DRSC08597 | 105 | 71.1 | – | –
Arpc2 (Actin-related protein 2/3 complex, subunit 2) | DRSC02113 | 92 | 82.8 | – | –
CG31668 | DRSC22584 | 150 | 198 | – | –
CG15080 | DRSC06511 | 90.8 | 77.9 | – | –
lectin-29Ca | DRSC02635 | 169 | 160 | – | –
Cyp4e3 (Cytochrome P450 4e3) | DRSC03306 | 136 | 158 | – | –
BoYb | DRSC11637 | 64.4 (active) | 141 | – | –
pch2 (pachytene checkpoint 2) | DRSC14368 | 149 | 154 | – | –
CG11113 | DRSC06039 | 121 | 125 | – | –
hob (hobbit) | DRSC08426 | 109 | 99 | – | –
Cipc (Clock interacting protein circadian) | DRSC14898 | 84.2 | 89.9 | – | –
Cipc (Clock interacting protein circadian) | DRSC14900 | 260 | 149 | – | –
ATPsynepsilonL (ATP synthase, epsilon subunit-like) | DRSC14548 | 70 (active) | 89.5 | – | –
CG14907 + Mettl4 | DRSC15026 | 114 | 131 | – | –
CG14907 + Mettl4 | DRSC15027 | 92.6 | 111 | – | –
CG14191 | DRSC19546 | 117 | 126 | – | –
ArfGAP3 (ADP-ribosylation factor GTPase activating protein 3) | DRSC11794 | 147 | 146 | – | –
Trf4-2 (Topoisomerase related function 4-2) | DRSC15237 | 147 | 146 | – | –
SLC22A (SLC22A family member) | DRSC11826 | 90.3 | 227 | – | –
SLC22A (SLC22A family member) | DRSC11827 | 128 | 178 | – | –
CG2736 | DRSC04314 | 135 | 92.6 | – | –
CR17438 (pseudo) | DRSC18125 | 85.4 | 113 | – | –
Vta1 (Vesicle trafficking 1) | DRSC08604 | 62.9 | 76 | 74.5 | 91.1
Vta1 (Vesicle trafficking 1) | DRSC22848 | 96.1 | 99.6 | – | –
CG18814 | DRSC10347 | 147 | 213 | – | –
Pp1-Y2 (Protein phosphatase 1, Y-linked 2) | DRSC21608 | 118 | 110 | – | –
ash1 (absent, small, or homeotic discs 1) | DRSC11325 | 111 | 101 | – | –
mv (retired record) | DRSC08208 | 87.6 | 114 | – | –
mv (retired record) | DRSC08570 | 79.1 | 102 | – | –
CG9673 | DRSC20202 | 86.8 | 145 | – | –
Ugt35D1 (UDP-glycosyltransferase family 35 member D1) | DRSC15107 | 95.2 | 103 | – | –
vimar (visceral mesodermal armadillo-repeats) | DRSC05026 | 164 | 96.4 | – | –
Fpps (Farnesyl pyrophosphate synthase) | DRSC07429 | 142 | 132 | – | –
CG13108 | DRSC02206 | 187 | 149 | – | –
CG32191 | DRSC10522 | 95.8 | 198 | – | –
Srp72 (Signal recognition particle 72) | DRSC15800 | 173 | 230 | – | –
Ddc (Dopa decarboxylase) | DRSC03314 | 195 | 76.4 | – | –
rha | DRSC17044 | 59.9 (active) | 72.4 | – | –
Ucp4B + asRNA:CR43465 | DRSC02665 | 173 | 117 | – | –
Spn28Db (Serpin 28Db) | DRSC22033 | 112 | 267 | – | –
Yif1 (Yip1-interacting factor 1) | DRSC15817 | 89.6 | 112 | – | –
Naa30A (N(alpha)-acetyltransferase 30 A) | DRSC18583 | 106 | 122 | – | –
Naa30A (N(alpha)-acetyltransferase 30 A) | DRSC23214 | 85 | 145 | – | –
MFS14 (Major Facilitator Superfamily Transporter 14) | DRSC06524 | 126 | 86.5 | 144 | 109
dikar | DRSC09699 | 78.7 | 89.3 | – | –
dikar | DRSC22261 | 127 | 156 | – | –
Gr63a (Gustatory receptor 63a) | DRSC08438 | 86.5 | 101 | – | –
CG4770 | DRSC15639 | 195 | 164 | – | –
Sqor (Sulfide quinone oxidoreductase) | DRSC08453 | 65.7 (active) | 79.6 | – | –
Vha100-4 (Vacuolar H[+] ATPase 100kD subunit 4) | DRSC16282 | 175 | 181 | – | –
Pvf2 (PDGF- and VEGF-related factor 2) | DRSC00968 | 120 | 130 | – | –
Pvf2 (PDGF- and VEGF-related factor 2) | DRSC02283 | 140 | 91.8 | – | –
clt (cricklet) | DRSC04621 | 66.8 | 210 | – | –
Sema5c (Semaphorin 5c) | DRSC11279 | 98.7 | 86.9 | – | –
Usp1 (Ubiquitin specific protease 1) | DRSC14155 | 107 | 88.9 | – | –
pnt (pointed) | DRSC17028 | 157 | 120 | – | –
pnt (pointed) | DRSC23204 | 137 | 183 | – | –
KrT95D (Krueppel target at 95D) | DRSC16725 | 123 | 190 | – | –
Clamp (Chromatin-linked adaptor for MSL proteins) | DRSC03718 | 163 | 93.7 | – | –
Clamp (Chromatin-linked adaptor for MSL proteins) | DRSC21682 | 140 | 74.2 | – | –
CG9205 | DRSC08642 | 142 | 136 | – | –
CG4998 | DRSC10466 | 81.9 | 194 | – | –
CG4998 | DRSC22911 | 91.2 | 153 | – | –
CG9626 | DRSC16525 | 119 | 120 | – | –
Iyd (Iodotyrosine deiodinase) | DRSC10614 | 109 | 116 | – | –
Iyd (Iodotyrosine deiodinase) | DRSC10615 | 92.4 | 105 | – | –
Ythdf (YTH N6-methyladenosine RNA binding protein) | DRSC16036 | 184 | 214 | – | –
Ythdf (YTH N6-methyladenosine RNA binding protein) | DRSC16037 | 122 (active) | 98 | – | –
CR33317 (pseudo) | DRSC02653 | 164 | 113 | – | –
CNT2 (Concentrative nucleoside transporter 2) | DRSC07073 | 160 | 97.8 | – | –
CG31730 | DRSC01308 | 183 | 103 | – | –
Elo68beta (Elongase 68beta) | DRSC09860 | 98.8 | 126 | – | –
nmdyn-D6 | DRSC20355 | 89.3 | 147 | – | –
mRpL39 (mitochondrial ribosomal protein L39) | DRSC10255 | 124 | 141 | – | –

Only “calcium signal, replicate 1”, for 12 of the entries above:
lectin-29Ca [DRSC02635] = 169
Cyp4e3 (Cytochrome P450 4e3) [DRSC03306] = 136
BoYb [DRSC11637] = 64.4 (active)
pch2 (pachytene checkpoint 2) [DRSC14368] = 149
CG11113 [DRSC06039] = 121
hob (hobbit) [DRSC08426] = 109
Cipc (Clock interacting protein circadian) [DRSC14898] = 84.2
Cipc (Clock interacting protein circadian) [DRSC14900] = 260
ATPsynepsilonL (ATP synthase, epsilon subunit-like) [DRSC14548] = 70 (active)
CG14907 + Mettl4 [DRSC15026] = 114
CG14907 + Mettl4 [DRSC15027] = 92.6
CG14191 [DRSC19546] = 117
